PubChem BioAssay AID1259405, NCATS | 2018

- Screen: 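Silenced genes that increase secreted GFP made by CHO cells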 (primary screen)
- Cells: Chinese hamster CHO-K1 ovary cells with stable secreted eGFP expression
- Reagent: single siRNA against mouse genes, 0.8 pmol siRNA per well (2 µl of 400 nM stock)
- Duration: 3 days
- Measured: 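Percent of the per-plate non-targeting control median for intracellular GFP per well by laser scanning cytometry and for cell viability by ATP luminescence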
- Reading the numbers: GFP, % of control: higher = more GFP per well, higher productivity; viability (ATP), % of control: higher = more viable cells (more ATP)
- Hit rule: 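Called active when intracellular GFP, relative to negative control, is at or above 120%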
The whole screen tested about 50,000 reagents; shown is a part drawn at random. About 4,000 of all reagents (8%) count as active. 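Mouse siRNA library applied to hamster cells; one well for each siRNA.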 Unmarked entries are inactive. The numbers tell different reagents against one gene apart.

Hmx3 (H6 homeobox 3) #1: GFP, % of control = 125 (active); viability (ATP), % of control = 108
Hmx3 (H6 homeobox 3) #2: GFP, % of control = 75.1; viability (ATP), % of control = 78.5
Hmx3 (H6 homeobox 3) #3: GFP, % of control = 92; viability (ATP), % of control = 75.1
Ankrd54 (ankyrin repeat domain 54) #1: GFP, % of control = 95.2; viability (ATP), % of control = 79.2
Ankrd54 (ankyrin repeat domain 54) #2: GFP, % of control = 76.9; viability (ATP), % of control = 80.8
Ankrd54 (ankyrin repeat domain 54) #3: GFP, % of control = 119; viability (ATP), % of control = 114
Zfp879 (zinc finger protein 879) #1: GFP, % of control = 65.5; viability (ATP), % of control = 94.3
Zfp879 (zinc finger protein 879) #2: GFP, % of control = 42.6; viability (ATP), % of control = 69.6
Zfp879 (zinc finger protein 879) #3: GFP, % of control = 76.9; viability (ATP), % of control = 121
Stx4a (syntaxin 4A (placental)) #1: GFP, % of control = 124 (active); viability (ATP), % of control = 97.1
Stx4a (syntaxin 4A (placental)) #2: GFP, % of control = 52.2; viability (ATP), % of control = 64.5
Or2t1 (olfactory receptor family 2 subfamily T member 1) #1: GFP, % of control = 37.6; viability (ATP), % of control = 52.5
Or2t1 (olfactory receptor family 2 subfamily T member 1) #2: GFP, % of control = 109; viability (ATP), % of control = 68.5
Or2t1 (olfactory receptor family 2 subfamily T member 1) #3: GFP, % of control = 49.4; viability (ATP), % of control = 99

4 of these entries, set out differently.
gene knocked down,reagent,"GFP, % of control","viability (ATP), % of control"
Ankrd54 (ankyrin repeat domain 54),3,119,114
Zfp879 (zinc finger protein 879),1,65.5,94.3
Zfp879 (zinc finger protein 879),2,42.6,69.6
Zfp879 (zinc finger protein 879),3,76.9,121

The listing continues:
Lyrm4 (LYR motif containing 4) #1: GFP, % of control = 44.5; viability (ATP), % of control = 74.5
Lyrm4 (LYR motif containing 4) #2: GFP, % of control = 61.5; viability (ATP), % of control = 74
Lyrm4 (LYR motif containing 4) #3: GFP, % of control = 61; viability (ATP), % of control = 80.4
Pgap6 (post-glycosylphosphatidylinositol attachment to proteins 6) #1: GFP, % of control = 54.6; viability (ATP), % of control = 51
Pgap6 (post-glycosylphosphatidylinositol attachment to proteins 6) #2: GFP, % of control = 93.8; viability (ATP), % of control = 105
Pgap6 (post-glycosylphosphatidylinositol attachment to proteins 6) #3: GFP, % of control = 156 (active); viability (ATP), % of control = 120
Pgap6 (post-glycosylphosphatidylinositol attachment to proteins 6) #4: GFP, % of control = 127 (active); viability (ATP), % of control = 91
Pgap6 (post-glycosylphosphatidylinositol attachment to proteins 6) #5: GFP, % of control = 124 (active); viability (ATP), % of control = 85.9
Pgap6 (post-glycosylphosphatidylinositol attachment to proteins 6) #6: GFP, % of control = 80.2; viability (ATP), % of control = 110
Pdia4 (protein disulfide isomerase associated 4) #1: GFP, % of control = 58.7; viability (ATP), % of control = 93.4
Pdia4 (protein disulfide isomerase associated 4) #2: GFP, % of control = 45.1; viability (ATP), % of control = 33.4
Pdia4 (protein disulfide isomerase associated 4) #3: GFP, % of control = 74.4; viability (ATP), % of control = 84.6
Spdye4b (speedy/RINGO cell cycle regulator family, member E4B) #1: GFP, % of control = 60.1; viability (ATP), % of control = 62.7
Spdye4b (speedy/RINGO cell cycle regulator family, member E4B) #2: GFP, % of control = 110; viability (ATP), % of control = 90.6
Spdye4b (speedy/RINGO cell cycle regulator family, member E4B) #3: GFP, % of control = 98.8; viability (ATP), % of control = 112
